Experimental data: US20080241162A1
No constants are given. Whether binding was seen depends on the method and setting. Some results given as binding are weak or reduced against the parent protein; the word gives no strength.

Amino acid sequences for entries named in this document (tags omitted). Residues count along the entry.
UniProt P27958, residues 388-664: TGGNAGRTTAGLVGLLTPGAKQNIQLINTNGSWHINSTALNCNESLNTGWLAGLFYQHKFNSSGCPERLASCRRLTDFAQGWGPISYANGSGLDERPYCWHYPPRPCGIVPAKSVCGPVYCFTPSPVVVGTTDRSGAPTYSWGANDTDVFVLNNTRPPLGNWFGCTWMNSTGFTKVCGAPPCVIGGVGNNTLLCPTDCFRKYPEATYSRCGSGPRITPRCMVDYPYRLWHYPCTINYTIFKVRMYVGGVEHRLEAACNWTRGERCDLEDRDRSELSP

Biological target: purified recombinant HCV/E2 of 1a genotype (strain H) expressed in CHO cells (Hepatitis C virus genotype 1a (strain H)) (UniProt P27958)
Experiment: Fab inhibition ELISA (FIT) on HCV/E2, probe e8-FLAG

B1: e8-IgG1 (full-size human monoclonal antibody) (antibody, V domains shown)
VH: LLEQSGAEVKMPGATVKVSCQSSRYTFTSYGIGWVRQAPGQGLEWMGWISGYTHETKYAQSFQGRVTMTAETSTGTAYMELRSLRSDDTATYYCARDGGGRVVVPPTHLRAFDVWGQGT
VL: MAELTQSPGTLSLSPGERATLSCRASHRVNNNFLAWYQQKPGQAPRLLISGASTRATGIPDRFSGSGSGTDFTLTISRLEPDDFAVYYCQQYGDSPLYSFGQGT
binding: binds
